One compound from PMC3272158 (Nature structural & molecular biology, 2012) can be followed below.

Experiment [1] addresses LeuT (LeuT-WT) (Aquifex aeolicus, UniProt O67854, L400S). The experiment in a line: biochemical. The settings on record: read-out: % residual binding compared to that in the absence of CMI, at 1 mM CMI.
Experiment [2] deals with LeuT (LeuT-WT) (Aquifex aeolicus, UniProt O67854, F253A). Nature of the experiment: biochemical. The settings on record: read-out: % residual binding compared to that in the absence of CMI, at 1 mM CMI.

As to `CN(C)CCCN1c2ccccc2CCc2ccc(Cl)cc21` [clomipramine], the values for the remaining activity at 1000 µM at LeuT (LeuT-WT) [1] and on LeuT (LeuT-WT) [2] were 95.6% and 5.8%, respectively.
